Data published in the supplement of paper PMC6445147.
Values scatter widely in this assay.

B1: human tRNA-Pro; a variant is named by its letters at N, in order (parent)
chain: GGCTCGTTGGTCTAGNGGTATGATTCTCGCTTAGGGTGCGAGAGGTCCCGGGTTCNNATCCCGGACGAGCCC

Legend:
[1] = variants of: B1; assay: tRNA Pol-III promoter activity, log2 (circRNA frequency / plasmid DNA frequency) (log2 ratio); higher = stronger promoter activity; conditions: HEK293T; construct: no Pol-II promoter ((-)CMV library)
[2] = variants of: B1; assay: tRNA 3' processing efficiency (processed reads / all reads, maximum-likelihood estimate) (fraction); higher = more efficient 3' processing; conditions: HEK293T; construct: no Pol-II promoter ((-)CMV library)
[3] = variants of: B1; assay: tRNA 5' processing efficiency (processed reads / all reads, maximum-likelihood estimate) (fraction); higher = more efficient 5' processing; conditions: HEK293T; construct: CMV Pol-II promoter ((+)CMV library, decapped)

Variant	tRNA Pol-III promoter activity (log2) [1]	tRNA 3' processing efficiency [2]	tRNA 5' processing efficiency [3]
TAC T8G G15A	4.93	0.25	
GAC T8G G15C T19G	7.84	0.2	
GAC G9T	-0.159	0.21	
GAC G9C	-0.246	0.42	
GAC G9A	0.896	0.4	0.5
GAC A20T T27A	7.99	0.52	
GAC A20G T59C	2.75	0.43	
GAC A14C T19A	3.93	0.2	
AAC T8C	4.21	0.33	0.25
AAC G9C A58G	5.94	0.25	
GAC T8A G15T T54G C55T T59G	5.03	0.5	
GAC G9T G15C G18T A20T C55A A58C	4.68	0.6	
GAC G15A G17A	4.18	0.08	
GAC G15A G17T	3.67	0.2	
CAC G18A	3.71	0.17	
GAC A20G	1.74	0.3	
GAC A20T	-0.0868	0.4	
GAC A20C	0.606	0.4	
GAC G15A A58G	4.46	0.31	0.33
GAC G9A T19G	3.75	0.29	
TAC G9A	4.24	0.25	
GAC G17A T53G C55T	3.53	0.33	
TAC G18C	4.34	0.38	

Variant	tRNA Pol-III promoter activity (log2) [1]	tRNA 3' processing efficiency [2]	tRNA 5' processing efficiency [3]
GAC A58C	0.658	0.26	0.25
GAC A58G	0.0424	0.18	0.33
GAC A58T	-0.286	0.29	0.2
GAC G9A G17T	6.93	0.13	
GAC T8A G15A T54C	5.15	0.57	
GAC G15T T19A	3.4	0.33	
GAC G9T T59C	5.15	0.14	
GAC G9T T59G	6.25	0.4	
AAC G17A	4.04	0.69	
CAC A20T	3.43	0.29	
CAC A20G	3.62	0.25	0.25
GAC G9T A58G	1.94	0.67	
GAC A20T T59C	4.16	0.17	
GAC A14T A58C	4.03	0.22	
GAC A14T A58G	6.34	0.19	
AAC G15C G17A	4.94	0.62	
GAC C55T	0.48	0.08	0.09
TAC G15C	2.9	0.4	
TAC G15A	3.5	0.41	
TAC G15T	2.69	0.13	0.25
CAC T8G	4.34	0.13	
GAC G17T A58C	2.53	0.56	
CAC A14T	3.92	0.57	

2 entries picked at random from the list so far, as already listed:
Variant	tRNA Pol-III promoter activity (log2) [1]	tRNA 3' processing efficiency [2]	tRNA 5' processing efficiency [3]
CAC A20G	3.62	0.25	0.25
CAC A20T	3.43	0.29	

An excerpt from above, showing only tRNA Pol-III promoter activity (log2) [1] and tRNA 5' processing efficiency [3]:

| Variant | tRNA Pol-III promoter activity (log2) [1] | tRNA 5' processing efficiency [3] |
| --- | --- | --- |
| GAC G9T | -0.159 |  |
| GAC G15T T19A | 3.4 |  |

(continued)

Variant	tRNA Pol-III promoter activity (log2) [1]	tRNA 3' processing efficiency [2]	tRNA 5' processing efficiency [3]
CAC A14G	3.33	0.53	
GAC G15T G17C	3.3	0.27	
GAC A20T A58T	3.12	0.67	
GAC G18A T19C	3.19	0.33	
GAC A14G T19G	6.03	0.12	
GAC A14G T19C	5.15	0.57	
GAC G9T T53A	2.51	0.33	
GAC A58C T59A	4.67	0.2	
GAC A58C T59C	6.2	0.11	
AAC A20G	3.21	0.5	
GAC G18T	-0.746	0.38	
GAC G18A	0.796	0.28	0.25
GAC T8A	-1.58	0.5	
GAC T8C	0.752	0.24	
GAC A14T T59C	4.67	0.4	
GAC G15A	1.26	0.38	0.18
GAC G15C	0.995	0.22	
GAC G15T G18A A20C	5.51	0.33	
AAC A14G	3.1	0.2	
AAC A14T	3.25	0.42	
TAC A14T T59A	3.93	0.44	
GAC G9T T53C A58T	3.45	0.5	
CAC G9A	2.57	0.25	

Variant	tRNA Pol-III promoter activity (log2) [1]	tRNA 3' processing efficiency [2]	tRNA 5' processing efficiency [3]
CAC G9T	2.28	0.33	
TAC T8C	5.53	0.33	
GAC A14T	1.09	0.35	0.25
GAC A14G	1.64	0.38	0.25
GAC A14T G18A	4.21	0.33	
GAC A14T T19G	5.93	0.25	
GAC A14T T19A	2.91	0.29	
GAC A33T	4.94	0.25	
GAC G9A A14C	3.68	0.4	
GAC G9A A14G	3.03	0.17	
GAC G15A G17T A20G	4.94	0.25	
TAC C55T A58T	5.36	0.13	
GAC G17A A20T	3.14	0.43	
AAC G9A	4.25	0.2	
GAC A58G T59G	3.01	0.27	
CAC A14T A20G	6.03	0.25	
GAC A20T T53C C55A	6.03	0.42	
TAC A14T	4.07	0.29	
TAC A14G	2.81	0.33	
GAC G50T	5.16	0.43	
TAC A14G A58G	5.75	0.57	
GAC G17T T53C	2.33	0.25	
GAC A20C A58G	5.03	0.5	

Variant	tRNA Pol-III promoter activity (log2) [1]	tRNA 3' processing efficiency [2]	tRNA 5' processing efficiency [3]
CAC A58G	3.26	0.4	
CAC A58T	3.07	0.33	
GAC T8G T53C A58C T59G	4.03	0.6	
GAC G17C T59A	3.76	0.25	
GAC T8C T19C	2.61	0.25	
TAC T8G A20C	3.36	0.25	
GAC G15C T53A	5.93	0.25	
GAC A14C G15T G17T	3.36	0.33	
TAC A20T	5.36	0.2	
TAC A20C	4.36	0.25	
GAC G17T	-0.0796	0.3	0.33
GAC G17C	0.602	0.32	
GAC G17T A20T A58G	6.25	0.2	
AAC A58C	5.55	0.48	
AAC A58G	4.93	0.06	
GAC A14G G15C	3.36	0.5	
TAC C55T	-0.145	0.5	
CAC G15T	5.26	0.57	
GAC G9T A20G	3.08	0.22	
GAC A14T A20G	3.75	0.13	
